For at least one compound, name, drawing or mass did not settle the structure.
Tested on: ERK signaling
Test: ERK signaling in MED12-suppressed cancer cells in presence of drugs
Format: cell-based, human
Description: The cells were fixed, stained and photographed after 10 (untreated) or 28 days (treated). […] The cells were fixed, stained and photographed after 14 (untreated) or 28 days (treated). […] G) Colony formation assay of Huh-7 cells expressing pLKO control or shMED12 vectors (#4 and #5) were cultured in 2 μM sorafenib. The cells were fixed, stained and photographed after 14 (untreated) or 21 days (treated). […] Huh-7 cells expressing pLKO control or shMED12 vectors were grown in the absence or presence of 4 μM sorafenib for 6 hours and the cell lysates were harvested for western blotting analysis.

CCCS(=O)(=O)Nc1ccc(F)c(C(=O)c2c[nH]c3ncc(-c4ccc(Cl)cc4)cc23)c1F [PLX4032, vemurafenib]
activation of ERK signaling by MED12 suppression in the presence of drug: persists

— US20140296248A1, “METHODS AND COMPOSITIONS FOR PREDICTING RESISTANCE TO ANTICANCER TREATMENT” (Stichting het Nederlands Kanker Instiuut-Antoni van …, priority 2011, published 2014)
